Measurements as given in KR20120049206A.
These are yes or no findings as the source states them, for the method shown. Some results given as binding are weak or reduced against the parent protein; the word gives no strength. Sequences can lack the tags named with a protein.

Target: GFP (green fluorescent protein), 항원용 GFP (Aequorea victoria) [GFP: P42212]
Experiment: phage ELISA, 2 ug GFP per well coated, anti-M13-HRP

| Binder | binding |
| --- | --- |
| GFP 단일 도메인 항체 2G9 (VHH) VHH: ESGGGSVQAGGSLRLSCVVSRSTYTSNCMGWFRQAPGKEREEVASIYTGGGITYYADSVKGRFTVSQDNAKNTVYLQMNSLKPEDTAMYYCAAGRGSWSCGMGPDEYKYWGQGTQVTVSS | binds |
| GFP 단일 도메인 항체 8G4 (VHH) VHH: ESGGGSVQAGGSLRLSCAAPRSTYTSNCMGWFRQAPGKEREEVASIYTGGDITYYADSVKGRFTMSQDNARSTVYLQMNSLKPEDTAMYYCAAGRGSWSCGSGPDEYKYWGQGTQVTVSS | binds |
| GFP 단일 도메인 항체 2G2 (VHH) VHH: EWGGSVQAGGSLRLSCSASGFASSPGCMAWFRQAPGKEREGVAEIATRSGSAYYADSVKGRFTISQDNAKNTLYLQMNSLKPEDTAIYYCAASRLRCTPAADFSRIPAYAMDYWGKGTQVTVSS | binds |
| GFP 단일 도메인 항체 7C8 (VHH) VHH: SWGGSVQTGGSLGLSCTTSLDGYSSVCMGWFRQTPGKEREGVATIHRAFGDTYYADSVKGRFTISEDSAKNTVYLRMNSLKPEDTGMYYCAAGRPKSGSAWNCRDAEYVYWGQGTQVTVSS | binds |
| GFP 단일 도메인 항체 3H8 (VHH) VHH: ESGGGSVQSGGSLRLSCVASGSTDRPAYMAWFRQAPGKEREGVATIYTEFGSQYYADSVKGRFTISQDNAKRTAYLQMNSLKPEDTAMYYCAATTAFRVLGTRKLDAAQYAYWGQGTQVTVSS | binds |
| GFP 단일 도메인 항체 8B9 (VHH) VHH: ESGGGSVQAGGSLRLSCAASGYTVSRGCMAWFRQVPGKEREGVAAINSGDGTTYYADSVKGRFTISQDNAKNTVYLQMNSLEPEDTSIYYCAASRLRCPWNLVSASWYDFWGQGTQVTVSS | binds |

Other lines, results leading:

| binding | Binder |
| --- | --- |
| binds | GFP 단일 도메인 항체 13H2 (VHH) VHH: ESGGGSVQAGGSLKLSCAASGYISSNCMGWFRQAPGKEREGVASIYRGYGNTYYTDSVKGRFTISQDNAKNTIYLQMNSLKPEDTARYYCAAVNCARWPFDREYNYWGQGTQVTVSS |
| binds | GFP 단일 도메인 항체 9H11 (VHH) VHH: SGGGSVQSGGSLRLTCAASGRTSSISYMGWFRQSPGKEREGVAFIDRRDSTTYADLVKGRFTISRDNARNTLYLQMNSLKPEDTAMYYCAARIRGYYSRPALSADFDYWGQGTQVTVSS |
| binds | GFP 단일 도메인 항체 10A8 (VHH) VHH: SLGGGSVQAGGSLRLSCAASGFAMSTYCMAWFRQAPGKEREGVATLSPLGILSHYADSVKGRFTVSRDNAKNTLSLQMNSLIPEDTAMYYCAAMPRPDGGAHGCVSWLAYNFWGQGTQVTVSS |
| binds | GFP 단일 도메인 항체 13C2 (VHH) VHH: GGGGSVQAGGSLRLSCAASGYISDSHGRNCMGWFRQAPGKEREAVARIYSRLGTTYYADSVKGRFTISRDNAKNTLYLQMHSLKPEDTAMYYCAAVGGLCIDKETPTDYPFWGQGTQVTVSS |
| binds | GFP 단일 도메인 항체 11F5 (VHH) VHH: ESGGGSVQSGGSLRLSCSGVTGSDYCLGWFRQAPGREREGVAASSRYGSTYYGDFVRGRFTISRDSAKNTLILQMNNLQPEDTAMYYCAASRRVGSCSTYERVFAYWGQGTQVTVSS |
